{"source": "patent US10688099B2", "about": "“Methods for modulating the amount of RNA transcripts” (PTC Therapeutics, Inc., priority 2013, dated 2020)", "tested_on": "RNA isoforms in PNN 1-46 SMA type I patient-derived fibroblasts", "assay": "RNA Abundance Modulation (RNA isoform abundance, iFPM, HiSeq RNA sequencing)", "assay_type": "cell-based, human", "conditions": "3 μM", "protocol": "Cells from a cell line of interest are cultured in conditions sufficient to yield the number of cells capable of generating enough RNA for subsequent sequencing steps. Cells from the tested cell line are contacted with a compound described herein.\nTo culture said cells, they are seeded, at appropriate concentrations in a volume of media in a cell culture container and incubated for 4, 5, 6, 7, 8, 9, 10, or more hours. A concentrated solution of compound in a vehicle (e.g., DMSO) is then added in sufficient volume to result in the intended final concentration of the compound, for example 100 nM, 500 nM, 1 μM, 5 μM, 10 μM, 15 μM, 20 μM, or more. The cells may also be treated with vehicle alone, as a control. A number of replicates of each concentration or control may be made (e.g., 2 replicates). The cells are then incubated at a constant temperature appropriate for cell culture of the particular cell line (e.g., 37° C.) for 6, 12, 18, 24, 48, or more hours. After incubation, the growth medium is removed and the cells are washed with the appropriate buffer (e.g., PBS). Cells are then removed from adherence to the cell culture container by treatment with a solution containing trypsin, and the trypsin subsequently quenched with the appropriate volume of buffer (e.g., DMEM-FBS). The cells are then pelleted with gentle centrifugation (e.g., ≤90×g centrifugal force) and resuspended in a buffer to lyse the cells for extraction of RNA. The cell lysates may then be frozen (e.g., at −80° C.) or, alternately, may immediately be used in a procedure to purify the RNA (e.g. by use of the RNEASY PLUS® minikit). The RNA from cell lysates is eluted in the appropriate volume of buffer (e.g., RNEASE-FREE H2O®). The resulting purified RNA may then be sequenced (e.g., using RNASeq) or analyzed using a human exon array (e.g., by GENECHIP® human exon array) to determine changes in the RNA levels in those cells treated with compound compared to those cells treated only with DMSO. The purified RNA may also be quantified by other methods known in the art.\nUsing the RNA data obtained from sequencing, exon array, or other methods, a statistical analysis can reveal changes in the RNA levels of compound-treated compared with control. For example, t-test p-values may be calculated for the data obtained through sequencing and exon array methods in order to compare compound-treated cells to those treated with the DMSO control. […] Analysis of the sequencing and exon array data may then also yield predictions about the cause of the aberrant amount of an RNA transcript in the cells (e.g., perturbation of RNA splicing, RNA transcription, or RNA stability). These predictions may be further confirmed by methods known in the art. For example, RT-PCR and RT-qPCR may be used to confirm the change in amount of RNA transcripts for one or more particular transcripts of interest.\nFollowing the methods described above in Example 1, PNN 1-46 SMA type I patient-derived fibroblasts were treated with 300 nM or 3 μM Compounds 774 and 808 in 0.5% DMSO.\n700,000 cells were seeded in 10 mL of medium (DMEM plus 10% FBS) in a T-75 flask. Cells were allowed to attach for at least 4 hrs, after which 50 μL of a 200× compound solution (100% DMSO) was added to each well, and the plate was incubated at 37° C. for 24 hrs.\nAt the end of the incubation period, the supernatant was removed and the cells where washed with PBS. TrypLE (Invitrogen) express solution was added (e.g. 1.5 mL per one T75 flask). The flasks were incubated for 3 to 5 min at 37° C. The trypsin was then quenched, e.g., by adding 10 mL DMEM-FBS.\nNext, the cells were pelleted using gentle centrifugation without exceeding 90×g centrifugal force. The supernatant was removed and the cell pellet was re-suspended in 600 μL RLT buffer (the RLT buffer was supplemented with beta-mercaptoethanol according to the RNeasy protocol manual) by pipetting up and down until the pellet was completely dissolved […]", "note": "This continues a long series; more values of the same kind are listed elsewhere.", "data": [{"smiles": "CCc1nc(C)cn2nc(-c3cc(=O)n4cc(C5CCN(C)CC5)cc(C)c4n3)cc12", "note": "[Compound 774]", "values": [{"measurement": "L2FC (x + 1)", "setting": "FHOD3 AB051482", "value": "−1.508"}, {"measurement": "L2abs (Cpd-DMSO)", "setting": "FHOD3 AB051482", "value": 7.51}, {"measurement": "abs (Cpd-DMSO)", "setting": "FHOD3 AB051482", "value": 182, "unit": "iFPM"}, {"measurement": "amp FC (x + 1)", "setting": "FHOD3 AB051482", "value": 2.84}, {"measurement": "ave Cpd", "setting": "FHOD3 AB051482", "value": 98, "unit": "iFPM"}, {"measurement": "FC (x + 1)", "setting": "FHOD3 AB084087", "value": 0.0098}, {"measurement": "L2FC (x + 1)", "setting": "FHOD3 AB084087", "value": "−6.674"}, {"measurement": "L2abs (Cpd-DMSO)", "setting": "FHOD3 AB084087", "value": 6.66}, {"measurement": "abs (Cpd-DMSO)", "setting": "FHOD3 AB084087", "value": 101, "unit": "iFPM"}, {"measurement": "amp FC (x + 1)", "setting": "FHOD3 AB084087", "value": 102.10}, {"measurement": "ave Cpd", "setting": "FHOD3 AB084087", "value": 0, "unit": "iFPM"}, {"measurement": "FC (x + 1)", "setting": "FHOD3 AK128053", "value": 0.8974}, {"measurement": "L2FC (x + 1)", "setting": "FHOD3 AK128053", "value": "−0.156"}, {"measurement": "L2abs (Cpd-DMSO)", "setting": "FHOD3 AK128053", "value": 0.72}, {"measurement": "abs (Cpd-DMSO)", "setting": "FHOD3 AK128053", "value": 2, "unit": "iFPM"}, {"measurement": "amp FC (x + 1)", "setting": "FHOD3 AK128053", "value": 1.11}, {"measurement": "ave Cpd", "setting": "FHOD3 AK128053", "value": 13, "unit": "iFPM"}, {"measurement": "FC (x + 1)", "setting": "FHOD3 AK308859", "value": 0.3689}, {"measurement": "L2FC (x + 1)", "setting": "FHOD3 AK308859", "value": "−1.439"}, {"measurement": "L2abs (Cpd-DMSO)", "setting": "FHOD3 AK308859", "value": 3.68}, {"measurement": "abs (Cpd-DMSO)", "setting": "FHOD3 AK308859", "value": 13, "unit": "iFPM"}, {"measurement": "amp FC (x + 1)", "setting": "FHOD3 AK308859", "value": 2.71}, {"measurement": "ave Cpd", "setting": "FHOD3 AK308859", "value": 6, "unit": "iFPM"}, {"measurement": "FC (x + 1)", "setting": "FHOD3 BC058897", "value": 0.4349}, {"measurement": "L2FC (x + 1)", "setting": "FHOD3 BC058897", "value": "−1.201"}, {"measurement": "L2abs (Cpd-DMSO)", "setting": "FHOD3 BC058897", "value": 5.22}, {"measurement": "abs (Cpd-DMSO)", "setting": "FHOD3 BC058897", "value": 37, "unit": "iFPM"}, {"measurement": "amp FC (x + 1)", "setting": "FHOD3 BC058897", "value": 2.30}, {"measurement": "ave Cpd", "setting": "FHOD3 BC058897", "value": 28, "unit": "iFPM"}, {"measurement": "FC (x + 1)", "setting": "FHOD3 HM191478", "value": 0.3167}, {"measurement": "L2FC (x + 1)", "setting": "FHOD3 HM191478", "value": "−1.659"}, {"measurement": "L2abs (Cpd-DMSO)", "setting": "FHOD3 HM191478", "value": 3.38}, {"measurement": "abs (Cpd-DMSO)", "setting": "FHOD3 HM191478", "value": 10, "unit": "iFPM"}, {"measurement": "amp FC (x + 1)", "setting": "FHOD3 HM191478", "value": 3.16}, {"measurement": "ave Cpd", "setting": "FHOD3 HM191478", "value": 4, "unit": "iFPM"}, {"measurement": "FC (x + 1)", "setting": "FHOD3 NM_025135", "value": 0.5522}, {"measurement": "L2FC (x + 1)", "setting": "FHOD3 NM_025135", "value": "−0.857"}, {"measurement": "L2abs (Cpd-DMSO)", "setting": "FHOD3 NM_025135", "value": 7.67}, {"measurement": "abs (Cpd-DMSO)", "setting": "FHOD3 NM_025135", "value": 203, "unit": "iFPM"}, {"measurement": "amp FC (x + 1)", "setting": "FHOD3 NM_025135", "value": 1.81}, {"measurement": "ave Cpd", "setting": "FHOD3 NM_025135", "value": 250, "unit": "iFPM"}, {"measurement": "FC (x + 1)", "setting": "FLII AK295814", "value": 2.3273}, {"measurement": "L2FC (x + 1)", "setting": "FLII AK295814", "value": 1.219}, {"measurement": "L2abs (Cpd-DMSO)", "setting": "FLII AK295814", "value": 2.99}, {"measurement": "abs (Cpd-DMSO)", "setting": "FLII AK295814", "value": 8, "unit": "iFPM"}, {"measurement": "amp FC (x + 1)", "setting": "FLII AK295814", "value": 2.33}, {"measurement": "ave Cpd", "setting": "FLII AK295814", "value": 13, "unit": "iFPM"}, {"measurement": "FC (x + 1)", "setting": "FLII BC021885", "value": 1.1053}, {"measurement": "L2FC (x + 1)", "setting": "FLII BC021885", "value": 0.144}, {"measurement": "L2abs (Cpd-DMSO)", "setting": "FLII BC021885", "value": 8.51}, {"measurement": "abs (Cpd-DMSO)", "setting": "FLII BC021885", "value": 364, "unit": "iFPM"}, {"measurement": "amp FC (x + 1)", "setting": "FLII BC021885", "value": 1.11}, {"measurement": "ave Cpd", "setting": "FLII BC021885", "value": 3822, "unit": "iFPM"}, {"measurement": "FC (x + 1)", "setting": "FLII NM_002018", "value": 0.9666}, {"measurement": "L2FC (x + 1)", "setting": "FLII NM_002018", "value": "−0.049"}, {"measurement": "L2abs (Cpd-DMSO)", "setting": "FLII NM_002018", "value": 6.97}, {"measurement": "abs (Cpd-DMSO)", "setting": "FLII NM_002018", "value": 125, "unit": "iFPM"}, {"measurement": "amp FC (x + 1)", "setting": "FLII NM_002018", "value": 1.03}, {"measurement": "ave Cpd", "setting": "FLII NM_002018", "value": 3619, "unit": "iFPM"}, {"measurement": "FC (x + 1)", "setting": "FLII NM_001256264", "value": 0.0064}, {"measurement": "L2FC (x + 1)", "setting": "FLII NM_001256264", "value": "−7.291"}]}]}
